Data on four substances can be found in article PMC6737913.

The chains behind the UniProt entries cited, without tags or fusion partners.
UniProt Q63357: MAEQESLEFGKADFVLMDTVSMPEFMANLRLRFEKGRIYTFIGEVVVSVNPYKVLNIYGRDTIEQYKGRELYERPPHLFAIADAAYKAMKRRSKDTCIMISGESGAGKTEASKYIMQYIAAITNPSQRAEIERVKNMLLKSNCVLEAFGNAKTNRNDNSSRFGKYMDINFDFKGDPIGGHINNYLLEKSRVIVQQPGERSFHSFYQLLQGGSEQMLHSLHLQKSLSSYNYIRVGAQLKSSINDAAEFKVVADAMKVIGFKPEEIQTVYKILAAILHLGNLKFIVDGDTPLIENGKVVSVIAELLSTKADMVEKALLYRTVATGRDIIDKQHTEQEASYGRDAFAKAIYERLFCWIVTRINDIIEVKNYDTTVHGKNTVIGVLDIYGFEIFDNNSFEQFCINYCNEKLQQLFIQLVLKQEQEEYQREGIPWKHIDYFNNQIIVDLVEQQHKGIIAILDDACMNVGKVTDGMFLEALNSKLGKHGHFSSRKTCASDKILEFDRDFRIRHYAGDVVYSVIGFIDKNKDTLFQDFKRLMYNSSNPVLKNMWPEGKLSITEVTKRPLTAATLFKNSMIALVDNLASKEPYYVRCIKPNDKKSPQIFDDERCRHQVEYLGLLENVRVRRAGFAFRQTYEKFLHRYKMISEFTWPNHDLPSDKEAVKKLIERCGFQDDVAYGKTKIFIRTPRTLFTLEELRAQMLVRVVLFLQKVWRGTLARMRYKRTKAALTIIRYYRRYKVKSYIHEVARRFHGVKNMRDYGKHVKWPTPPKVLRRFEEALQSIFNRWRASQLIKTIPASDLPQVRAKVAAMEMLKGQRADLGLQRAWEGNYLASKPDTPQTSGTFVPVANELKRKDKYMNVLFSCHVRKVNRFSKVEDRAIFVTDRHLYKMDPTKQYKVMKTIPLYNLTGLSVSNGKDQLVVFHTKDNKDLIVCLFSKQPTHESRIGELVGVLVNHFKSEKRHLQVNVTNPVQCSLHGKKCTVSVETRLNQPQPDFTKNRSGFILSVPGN
UniProt Q9Y4I1: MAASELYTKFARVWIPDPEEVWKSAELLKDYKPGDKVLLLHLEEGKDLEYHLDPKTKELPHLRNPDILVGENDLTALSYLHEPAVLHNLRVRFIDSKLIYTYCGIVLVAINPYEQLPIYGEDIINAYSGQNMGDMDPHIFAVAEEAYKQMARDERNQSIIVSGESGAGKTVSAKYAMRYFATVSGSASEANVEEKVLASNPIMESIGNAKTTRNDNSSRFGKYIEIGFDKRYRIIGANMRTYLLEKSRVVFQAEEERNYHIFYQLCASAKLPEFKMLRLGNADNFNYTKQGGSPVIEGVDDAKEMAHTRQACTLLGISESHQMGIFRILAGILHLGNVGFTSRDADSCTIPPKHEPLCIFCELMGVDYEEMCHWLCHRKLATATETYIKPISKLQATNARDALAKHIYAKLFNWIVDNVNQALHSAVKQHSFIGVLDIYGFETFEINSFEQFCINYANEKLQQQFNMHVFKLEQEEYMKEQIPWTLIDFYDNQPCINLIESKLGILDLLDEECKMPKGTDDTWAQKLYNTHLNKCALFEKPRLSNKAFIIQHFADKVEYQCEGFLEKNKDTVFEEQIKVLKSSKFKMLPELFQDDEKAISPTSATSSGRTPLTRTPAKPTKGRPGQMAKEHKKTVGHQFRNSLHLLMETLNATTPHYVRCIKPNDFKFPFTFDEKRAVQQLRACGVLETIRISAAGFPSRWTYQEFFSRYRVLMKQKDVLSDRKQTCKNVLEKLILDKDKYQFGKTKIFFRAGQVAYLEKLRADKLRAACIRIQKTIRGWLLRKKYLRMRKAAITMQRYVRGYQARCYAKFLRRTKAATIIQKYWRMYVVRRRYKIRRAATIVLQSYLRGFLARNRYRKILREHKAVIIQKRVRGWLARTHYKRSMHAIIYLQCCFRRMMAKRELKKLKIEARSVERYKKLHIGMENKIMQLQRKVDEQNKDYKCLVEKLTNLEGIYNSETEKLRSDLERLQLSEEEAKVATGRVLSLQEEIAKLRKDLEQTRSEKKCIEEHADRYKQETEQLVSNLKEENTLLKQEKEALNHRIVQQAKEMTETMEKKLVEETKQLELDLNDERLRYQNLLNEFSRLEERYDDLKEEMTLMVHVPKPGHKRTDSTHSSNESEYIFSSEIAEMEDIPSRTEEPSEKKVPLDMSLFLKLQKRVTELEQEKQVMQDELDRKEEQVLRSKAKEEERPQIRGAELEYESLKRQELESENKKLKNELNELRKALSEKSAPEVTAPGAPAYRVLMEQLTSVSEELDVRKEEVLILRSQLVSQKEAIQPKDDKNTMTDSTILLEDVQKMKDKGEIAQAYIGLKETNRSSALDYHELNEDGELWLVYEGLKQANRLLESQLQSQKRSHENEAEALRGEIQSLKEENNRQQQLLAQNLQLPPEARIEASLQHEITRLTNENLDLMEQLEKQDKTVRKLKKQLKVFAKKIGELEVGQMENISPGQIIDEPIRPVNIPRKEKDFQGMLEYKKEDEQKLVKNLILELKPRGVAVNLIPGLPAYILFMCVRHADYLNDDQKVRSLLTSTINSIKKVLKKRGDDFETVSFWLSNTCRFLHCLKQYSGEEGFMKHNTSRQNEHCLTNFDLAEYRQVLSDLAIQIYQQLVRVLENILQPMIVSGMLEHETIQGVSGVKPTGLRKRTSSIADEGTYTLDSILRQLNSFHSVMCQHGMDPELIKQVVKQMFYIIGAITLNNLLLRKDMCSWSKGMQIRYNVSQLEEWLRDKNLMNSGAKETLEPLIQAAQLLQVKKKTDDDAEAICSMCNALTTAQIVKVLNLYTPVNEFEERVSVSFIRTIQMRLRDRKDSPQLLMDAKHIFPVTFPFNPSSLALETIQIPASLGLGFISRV
UniProt Q9QYF3: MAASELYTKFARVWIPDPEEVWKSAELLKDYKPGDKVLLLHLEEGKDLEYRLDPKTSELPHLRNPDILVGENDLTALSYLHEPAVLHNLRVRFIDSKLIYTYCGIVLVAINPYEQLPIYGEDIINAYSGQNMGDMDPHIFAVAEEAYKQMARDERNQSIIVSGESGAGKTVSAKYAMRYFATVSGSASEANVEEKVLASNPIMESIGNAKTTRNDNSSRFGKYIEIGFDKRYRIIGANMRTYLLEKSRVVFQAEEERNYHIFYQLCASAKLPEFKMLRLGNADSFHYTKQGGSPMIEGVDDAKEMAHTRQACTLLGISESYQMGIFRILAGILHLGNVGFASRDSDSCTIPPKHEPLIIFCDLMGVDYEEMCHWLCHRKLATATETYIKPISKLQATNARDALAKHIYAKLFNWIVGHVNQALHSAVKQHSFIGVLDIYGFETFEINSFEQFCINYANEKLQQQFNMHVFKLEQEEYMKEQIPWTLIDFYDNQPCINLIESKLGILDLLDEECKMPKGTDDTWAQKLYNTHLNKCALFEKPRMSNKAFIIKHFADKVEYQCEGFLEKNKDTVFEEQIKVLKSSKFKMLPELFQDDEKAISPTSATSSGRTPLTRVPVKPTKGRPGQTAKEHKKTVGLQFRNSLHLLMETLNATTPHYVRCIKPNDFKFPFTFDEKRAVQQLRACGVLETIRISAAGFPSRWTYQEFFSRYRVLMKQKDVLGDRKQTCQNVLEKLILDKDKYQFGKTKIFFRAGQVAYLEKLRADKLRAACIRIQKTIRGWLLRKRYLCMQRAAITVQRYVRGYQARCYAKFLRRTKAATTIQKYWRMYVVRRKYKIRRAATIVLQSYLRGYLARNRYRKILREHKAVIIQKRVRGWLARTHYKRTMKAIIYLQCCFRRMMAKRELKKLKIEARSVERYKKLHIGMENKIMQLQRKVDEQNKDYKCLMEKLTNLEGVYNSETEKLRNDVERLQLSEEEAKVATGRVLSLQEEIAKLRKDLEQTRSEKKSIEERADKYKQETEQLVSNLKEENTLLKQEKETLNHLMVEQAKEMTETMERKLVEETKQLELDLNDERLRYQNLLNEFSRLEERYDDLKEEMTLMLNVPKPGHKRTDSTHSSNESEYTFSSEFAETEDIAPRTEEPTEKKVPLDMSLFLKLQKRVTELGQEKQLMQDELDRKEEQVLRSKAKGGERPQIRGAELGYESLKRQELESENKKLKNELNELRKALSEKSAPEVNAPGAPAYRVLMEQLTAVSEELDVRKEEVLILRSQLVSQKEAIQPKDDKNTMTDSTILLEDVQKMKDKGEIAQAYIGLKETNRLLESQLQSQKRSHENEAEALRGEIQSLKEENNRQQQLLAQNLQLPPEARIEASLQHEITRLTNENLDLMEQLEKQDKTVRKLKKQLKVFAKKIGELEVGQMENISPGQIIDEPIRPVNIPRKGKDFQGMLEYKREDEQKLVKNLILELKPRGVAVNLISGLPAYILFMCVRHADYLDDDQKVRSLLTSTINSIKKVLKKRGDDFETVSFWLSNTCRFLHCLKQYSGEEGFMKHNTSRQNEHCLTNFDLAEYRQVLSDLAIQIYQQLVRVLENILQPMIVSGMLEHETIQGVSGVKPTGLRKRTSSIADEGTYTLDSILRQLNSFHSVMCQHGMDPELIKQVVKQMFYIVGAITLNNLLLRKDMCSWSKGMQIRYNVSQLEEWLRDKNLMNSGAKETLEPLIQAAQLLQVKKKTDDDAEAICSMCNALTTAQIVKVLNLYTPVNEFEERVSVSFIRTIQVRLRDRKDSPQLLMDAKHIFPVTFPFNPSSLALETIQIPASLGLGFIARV
UniProt P70569: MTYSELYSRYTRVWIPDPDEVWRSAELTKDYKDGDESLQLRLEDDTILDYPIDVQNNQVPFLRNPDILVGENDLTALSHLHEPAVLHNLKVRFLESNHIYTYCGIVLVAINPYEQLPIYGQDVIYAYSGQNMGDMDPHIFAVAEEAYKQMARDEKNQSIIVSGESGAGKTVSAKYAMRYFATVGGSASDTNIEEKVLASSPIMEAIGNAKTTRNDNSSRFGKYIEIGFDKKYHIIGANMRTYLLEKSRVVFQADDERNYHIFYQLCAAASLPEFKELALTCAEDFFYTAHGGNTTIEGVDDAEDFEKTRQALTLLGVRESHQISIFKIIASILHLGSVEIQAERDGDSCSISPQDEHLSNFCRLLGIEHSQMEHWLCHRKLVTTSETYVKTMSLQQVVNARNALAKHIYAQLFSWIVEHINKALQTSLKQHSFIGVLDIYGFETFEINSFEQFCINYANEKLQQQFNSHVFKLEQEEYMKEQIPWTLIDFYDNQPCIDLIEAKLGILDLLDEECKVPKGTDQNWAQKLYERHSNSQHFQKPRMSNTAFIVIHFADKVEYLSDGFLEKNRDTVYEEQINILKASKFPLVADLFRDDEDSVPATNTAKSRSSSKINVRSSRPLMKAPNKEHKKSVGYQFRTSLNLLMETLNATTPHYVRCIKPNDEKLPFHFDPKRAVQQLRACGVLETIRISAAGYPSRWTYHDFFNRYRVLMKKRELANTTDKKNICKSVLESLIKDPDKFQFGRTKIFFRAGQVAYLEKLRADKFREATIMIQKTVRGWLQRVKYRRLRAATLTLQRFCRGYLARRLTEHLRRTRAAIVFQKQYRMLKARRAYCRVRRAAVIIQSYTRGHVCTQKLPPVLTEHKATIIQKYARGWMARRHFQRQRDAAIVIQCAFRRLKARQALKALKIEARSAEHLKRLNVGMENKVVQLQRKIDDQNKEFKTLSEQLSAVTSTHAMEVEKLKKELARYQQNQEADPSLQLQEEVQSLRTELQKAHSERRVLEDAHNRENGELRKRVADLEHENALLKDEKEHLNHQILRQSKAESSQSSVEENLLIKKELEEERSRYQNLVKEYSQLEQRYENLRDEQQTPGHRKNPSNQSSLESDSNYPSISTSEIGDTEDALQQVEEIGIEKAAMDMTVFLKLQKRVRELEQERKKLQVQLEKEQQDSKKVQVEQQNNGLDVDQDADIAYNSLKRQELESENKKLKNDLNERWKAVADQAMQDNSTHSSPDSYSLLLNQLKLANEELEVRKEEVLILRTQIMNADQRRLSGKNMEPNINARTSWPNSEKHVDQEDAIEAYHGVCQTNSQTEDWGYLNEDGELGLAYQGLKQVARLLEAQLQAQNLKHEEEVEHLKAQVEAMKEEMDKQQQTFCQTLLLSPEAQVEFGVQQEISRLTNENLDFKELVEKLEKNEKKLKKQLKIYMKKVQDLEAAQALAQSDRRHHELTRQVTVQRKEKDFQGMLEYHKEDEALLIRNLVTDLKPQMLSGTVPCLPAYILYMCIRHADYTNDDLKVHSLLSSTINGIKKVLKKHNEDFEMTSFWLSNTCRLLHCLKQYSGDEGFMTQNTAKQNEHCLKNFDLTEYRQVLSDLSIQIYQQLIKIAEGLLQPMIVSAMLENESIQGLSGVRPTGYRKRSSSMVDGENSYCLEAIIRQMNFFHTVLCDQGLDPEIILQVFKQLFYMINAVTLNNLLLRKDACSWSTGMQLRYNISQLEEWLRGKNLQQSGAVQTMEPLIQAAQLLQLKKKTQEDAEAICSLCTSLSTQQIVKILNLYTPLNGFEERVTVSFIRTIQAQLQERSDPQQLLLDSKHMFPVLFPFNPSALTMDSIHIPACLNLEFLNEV

No constants are given. Whether binding was seen depends on the method and setting. In cells and extracts the contact can be indirect. Some results given as binding are weak or reduced against the parent protein; the word gives no strength. Tags and fused reporters may be left off the sequences shown.

In assay [1] the target is T1, bio-GFP–synaptopodin (biotinylated GFP–synaptopodin) (mouse) (UniProt Q8CC35).
T1 sequence (chain, biotin (biotinylated; co-expressed with HA–BirA)): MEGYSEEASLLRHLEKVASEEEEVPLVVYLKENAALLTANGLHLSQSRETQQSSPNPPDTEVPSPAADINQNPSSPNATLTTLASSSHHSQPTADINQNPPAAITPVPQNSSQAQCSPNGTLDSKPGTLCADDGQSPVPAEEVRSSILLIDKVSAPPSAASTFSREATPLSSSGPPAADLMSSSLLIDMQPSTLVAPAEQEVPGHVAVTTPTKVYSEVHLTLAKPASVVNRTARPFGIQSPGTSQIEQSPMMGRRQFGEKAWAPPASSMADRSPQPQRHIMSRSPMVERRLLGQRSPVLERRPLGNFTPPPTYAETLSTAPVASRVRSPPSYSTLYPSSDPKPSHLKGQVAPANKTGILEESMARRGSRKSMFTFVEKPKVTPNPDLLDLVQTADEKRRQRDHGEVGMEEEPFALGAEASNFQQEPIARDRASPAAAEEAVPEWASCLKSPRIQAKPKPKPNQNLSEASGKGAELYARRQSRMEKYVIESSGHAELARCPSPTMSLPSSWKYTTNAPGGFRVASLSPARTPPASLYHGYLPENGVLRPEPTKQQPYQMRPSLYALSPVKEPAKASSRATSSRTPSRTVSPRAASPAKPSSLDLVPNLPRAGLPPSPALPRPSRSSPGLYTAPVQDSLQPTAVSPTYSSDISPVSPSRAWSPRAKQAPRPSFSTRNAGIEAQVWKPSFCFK
The assay can be described thus: pull-down; bio-GFP–synaptopodin (or bio-GFP control) from HEK293T lysate held on Streptavidin Dynabeads, washed (100/500 mM KCl), incubated with cleared rat brain lysate for 1 h at 4°C, washed five times; western blot of individual interactors; only the target purified. For orientation: Immunoblotting shows a protein as a band on a membrane.

The target in assay [2] is T1, bio-GFP–synaptopodin (biotinylated GFP–synaptopodin) (mouse). As to the kind of experiment: pull-down; bio-GFP–synaptopodin-coupled Streptavidin beads before incubation in brain lysate (Beads w/o): bound overnight at 4°C from HEK293T lysate (20 mM Tris-HCl pH 8, 150 mM NaCl, 1% Triton X-100, 5 mM MgCl2), washed with 100 mM and 500 mM KCl buffers; western blot for myosin Va and actin.

On to “myosin Id (endogenous, rat brain) (from UniProt Q63357 1-1006)”, for which the binding result in assay [1] was “binds”.

In the case of “myosin Va (endogenous, HEK293 cells) (from UniProt Q9Y4I1 1-1855)”, the binding entry in assay [2] is listed as “no binding”. For the substance “myosin Va (endogenous, rat brain) (from UniProt Q9QYF3 1-1828)”, in assay [1], the binding entry was “binds”. As for “myosin Vb (endogenous, rat brain) (from UniProt P70569 1-1846)”, in assay [1], the binding entry is given as “binds”.
